Binding data for 4 molecules are collected here from paper PMC11757159.

Protein sequences, listed by entry. Tags and fused reporters are not part of them.
UniProt Q5EE01: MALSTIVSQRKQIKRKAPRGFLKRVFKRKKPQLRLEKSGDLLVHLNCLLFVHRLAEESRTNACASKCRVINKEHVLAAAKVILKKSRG
UniProt Q92674: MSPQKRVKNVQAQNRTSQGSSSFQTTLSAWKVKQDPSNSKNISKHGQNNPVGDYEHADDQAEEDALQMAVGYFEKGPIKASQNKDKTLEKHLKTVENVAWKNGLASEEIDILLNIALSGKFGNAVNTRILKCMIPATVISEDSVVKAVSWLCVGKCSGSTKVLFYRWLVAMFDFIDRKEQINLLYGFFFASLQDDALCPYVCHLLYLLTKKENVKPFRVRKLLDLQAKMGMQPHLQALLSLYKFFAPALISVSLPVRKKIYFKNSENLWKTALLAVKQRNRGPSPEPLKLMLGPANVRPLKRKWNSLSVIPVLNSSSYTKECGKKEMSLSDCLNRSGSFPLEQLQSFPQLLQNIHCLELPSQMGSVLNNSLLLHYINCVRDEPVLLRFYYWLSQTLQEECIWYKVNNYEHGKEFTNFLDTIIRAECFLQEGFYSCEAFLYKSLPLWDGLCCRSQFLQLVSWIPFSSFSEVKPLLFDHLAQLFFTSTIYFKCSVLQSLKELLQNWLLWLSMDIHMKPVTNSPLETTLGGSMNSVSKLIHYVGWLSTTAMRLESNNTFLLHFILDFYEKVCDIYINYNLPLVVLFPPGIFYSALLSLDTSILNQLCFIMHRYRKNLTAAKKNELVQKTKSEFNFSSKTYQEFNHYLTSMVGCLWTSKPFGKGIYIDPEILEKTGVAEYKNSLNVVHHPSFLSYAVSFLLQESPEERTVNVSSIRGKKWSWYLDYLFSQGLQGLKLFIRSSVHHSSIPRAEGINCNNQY

The chains are these.
B1: CENP-B (protein, UniProt P07199 1-599)
chain: MGPKRRQLTFREKSRIIQEVEENPDLRKGEIARRFNIPPSTLSTILKNKRAILASERKYGVASTCRKTNKLSPYDKLEGLLIAWFQQIRAAGLPVKGIILKEKALRIAEELGMDDFTASNGWLDRFRRRHGVVSCSGVARARARNAAPRTPAAPASPAAVPSEGSGGSTTGWRAREEQPPSVAEGYASQDVFSATETSLWYDFLPDQAAGLCGGDGRPRQATQRLSVLLCANADGSEKLPPLVAGKSAKPRAGQAGLPCDYTANSKGGVTTQALAKYLKALDTRMAAESRRVLLLAGRLAAQSLDTSGLRHVQLAFFPPGTVHPLERGVVQQVKGHYRQAMLLKAMAALEGQDPSGLQLGLTEALHFVAAAWQAVEPSDIAACFREAGFGGGPNATITTSLKSEGEEEEEEEEEEEEEEGEGEEEEEEGEEEEEEGGEGEELGEEEEVEEEGDVDSDEEEEEDEESSSEGLEAEDWAQGVVEAGGSFGAYGAQEEAQCPTLHFLEGGEDSDSDSEEEDDEEEDDEDEDDDDDEEDGDEVPVPSFGEAMAYFAMVKRYLTSFPIDDRVQSHILHLEHDLVHVTRKNHARQAGVRGLGHQS

These are yes or no findings as the source states them, for the method shown. Binding seen in cells or lysates may run through a third protein. Some results given as binding are weak or reduced against the parent protein; the word gives no strength.

The target in this assay is CENP-C (human (endogenous in HeLa)) (UniProt Q03188). In words: co-IP; first native ChIP (no fixation) with anti-CENP-C antibody (PD030, asynchronous HeLa; EPR15939, HeLa synchronised to S, G2, M, G1; also transfected HeLa) on chromatin extracted in 0.5X PBS, 0.1 mM EGTA after 6-min MNase digestion; Protein G Sepharose, washed with 0.5X PBS; Western blot.
For the molecule CENP-W (from UniProt Q5EE01 1-88), the binding result is recorded as “binds”. Under CENP-T (from UniProt Q96BT3 1-561) stands “binds”.

Turning to CENP-I (from UniProt Q92674 1-756), the binding result was “binds”. With B1, the binding entry was “binds”.
